{
  "source": "paper PMC12541429",
  "molecular_target": "T1, GST-EFCAB10 (mouse) (UniProt Q9D581)",
  "T1 sequence": "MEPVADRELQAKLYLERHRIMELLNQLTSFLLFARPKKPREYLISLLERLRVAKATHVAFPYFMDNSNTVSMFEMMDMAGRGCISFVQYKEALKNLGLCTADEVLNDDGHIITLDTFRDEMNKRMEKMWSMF",
  "assay": "pull-down; GST or GST-EFCAB10 bound to glutathione agarose beads, incubated with the supernatant of E. coli expressing HisMBP-tagged AK8 fragment, 4 h at 4 °C; low-salt lysis buffer (20 mM Tris-HCl, 100 mM KCl, 0.1% NP-40, 1 mM EDTA, 10% glycerol, 10 mM sodium pyrophosphate, pH 7.5); only the target purified",
  "note": "No constants are given. Whether binding was seen depends on the method and setting. In cells and extracts the contact can be indirect. Binding calls can cover weak binding; strength is not graded here. Tags and fused reporters may be left off the sequences shown.",
  "data": [
    {"substance": "His-MBP-AK8 N-terminus fragment (mouse) (domain or fragment)", "values": [
      {"measurement": "binding", "value": "binds"}
    ]}
  ]
}
